# Measured values as given in PMC7948952, “Structural basis for multifunctional roles of human Ints3 C-terminal domain” (The Journal of Biological Chemistry, 2020).
# Chains of the proteins cited; added tags and fusions are not shown. A line that says so, or that is headed by a name, gives the form on record, which may keep a tag or linker.
# Ints3 C-terminal domain (Ints3-555-976) WT (human), one chain, as listed by the source: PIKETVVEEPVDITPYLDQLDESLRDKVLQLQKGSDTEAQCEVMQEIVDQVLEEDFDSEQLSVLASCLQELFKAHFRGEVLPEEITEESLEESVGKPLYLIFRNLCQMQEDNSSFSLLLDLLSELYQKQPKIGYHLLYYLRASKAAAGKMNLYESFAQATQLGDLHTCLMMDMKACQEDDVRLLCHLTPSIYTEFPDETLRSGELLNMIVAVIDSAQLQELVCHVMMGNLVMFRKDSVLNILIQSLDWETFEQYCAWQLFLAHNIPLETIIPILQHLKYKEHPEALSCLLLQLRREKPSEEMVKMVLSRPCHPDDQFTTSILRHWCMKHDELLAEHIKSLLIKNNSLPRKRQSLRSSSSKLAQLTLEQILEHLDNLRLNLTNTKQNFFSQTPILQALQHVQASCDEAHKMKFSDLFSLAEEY
# A weaker result is weaker than the reference pair of the same experiment.
# Test system: Ints3 C-terminal domain (Ints3-555-976) WT (human)
# Test: EMSA
# Conditions: shifted fraction rather low at 25 uM protein, tested up to 200 uM; 20 mM Hepes pH 7.4, 100 mM NaCl, 1 mM MgCl2, 1 mg/ml BSA, 2 mM DTT, 5% glycerol; on ice 30 min; 7.5 nM probe; native 5% PAGE in 1X TBE; recombinant protein; residues 555-976; label: 5' 32P; single-stranded DNA
sequence,measurement,value
TTTTTTTTTTTTTTTTTTTTTTTTTTTTTT [dT30],binding result,binds more weakly
